# PubChem BioAssay AID1224826, NIAID | 2016
# Assay: 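Genes that change LPS-induced Tnf promoter activity in mouse macrophages when knocked down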 (primary screen)
# Cell system: RAW264.7 G9 macrophages from mouse bearing reporters for p65 (GFP) and the Tnf promoter (mCherry)
# Reagent: siRNA pool against mouse genes, 100 nM
# Duration: 16 h of LPS stimulation, after 2 days of siRNA transfection
# Conditions: bacterial lipopolysaccharide (Salmonella minnesota R595), 10 ng/ml
# Measured: 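Nuclear mCherry signal of the Tnf promoter reporter measured by imaging after background removal, scaled to each plate median and turned into robust z-scores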
# Reading the numbers: Tnf reporter robust z-score: higher = stronger Tnf promoter reporter signal after LPS; Tnf reporter intensity: higher = stronger Tnf promoter reporter signal
# Rule for the call: 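Called active when robust z-score is at most -1.3, matching the median of the Tlr4 knock-down control, or over 3; control wells and wells with under 50 cells never active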
# Calls: active = Tnf reporter clearly lowered or raised; inactive = no clear change in Tnf reporter
# Here is one part, drawn at random, of about 17,000 deposited reagents. About 1,110 of them (6.6%) count as active. 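Active means lowered or raised reporter signal; replicate intensities are raw and not normalised per plate.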 Entries without a mark were called inactive.
Gene,PubChem SID,Tnf reporter robust z-score,fewer than 50 cells in well,"Tnf reporter intensity, replicate 1","Tnf reporter intensity, replicate 2"
Wdr45b,SID315472666,-1.43 (active),enough cells in well,152,35.2
Dennd4a,SID315476331,1.29,enough cells in well,203,287
Dennd4a,SID315481108,0.58,enough cells in well,251,193
Htra1,SID315471403,0.48,enough cells in well,247,257
Ceacam10,SID315470352,0.55,enough cells in well,180,175
Trak2,SID315474140,0.62,enough cells in well,203,205
Xpnpep3,SID315481434,-0.4,enough cells in well,207,190
Rdh13,SID315476746,1.83,enough cells in well,208,205
Or4f47,SID315480122,1.27,enough cells in well,240,185
Aff1,SID315467936,1.15,enough cells in well,248,184
Pak1,SID315468383,0.22,enough cells in well,195,177
Spire1,SID315473433,-0.05,enough cells in well,107,89.4
Ugt1a2,SID315469928,,fewer than 50 cells per well; well left out of calls,34.1,0
Ifna6,SID315467390,-0.86,enough cells in well,177,102
Zfp706,SID315473378,,fewer than 50 cells per well; well left out of calls,169,59.4
Rgl3,SID315474305,1.15,enough cells in well,202,153
Tgif1,SID315469696,0.08,enough cells in well,240,137
Ptch2,SID315468764,1.06,enough cells in well,380,221
Terf2,SID315469663,0.07,enough cells in well,254,127
Spdef,SID315470737,-0.76,enough cells in well,220,149
Or8u3,SID315480623,-0.3,enough cells in well,174,130
Scrt1,SID315477202,-0.25,enough cells in well,113,122
Bcas3,SID315477402,,fewer than 50 cells per well; well left out of calls,10.4,219
Nudt22,SID315473506,-1.12,enough cells in well,222,31.9
Ankrd61,SID315472611,-0.26,enough cells in well,119,61.1
Sln,SID315472418,,fewer than 50 cells per well; well left out of calls,94.1,49.6
Cdh24,SID315479418,0.75,enough cells in well,236,180
Or5p81,SID315480001,2.52,enough cells in well,220,168
Smyd4,SID315481173,,fewer than 50 cells per well; well left out of calls,82.3,47.9

Ordered by “Tnf reporter intensity, replicate 1” (low to high): 6 of the entries above.
Gene,PubChem SID,Tnf reporter robust z-score,fewer than 50 cells in well,"Tnf reporter intensity, replicate 1","Tnf reporter intensity, replicate 2"
Bcas3,SID315477402,,fewer than 50 cells per well; well left out of calls,10.4,219
Scrt1,SID315477202,-0.25,enough cells in well,113,122
Ankrd61,SID315472611,-0.26,enough cells in well,119,61.1
Or8u3,SID315480623,-0.3,enough cells in well,174,130
Spdef,SID315470737,-0.76,enough cells in well,220,149
Nudt22,SID315473506,-1.12,enough cells in well,222,31.9

Next records follow:
Gene,PubChem SID,Tnf reporter robust z-score,fewer than 50 cells in well,"Tnf reporter intensity, replicate 1","Tnf reporter intensity, replicate 2"
Coro1a,SID315465983,-0.75,enough cells in well,158,169
Gcnt2,SID315466860,0.65,enough cells in well,315,284
Or5i1,SID315480296,0.51,enough cells in well,354,70.3
Cd300lf,SID315479893,0.01,enough cells in well,232,229
Zfp365,SID315477969,0.13,enough cells in well,116,146
Cox7b,SID315472241,-0.3,enough cells in well,133,158
Pcdhb20,SID315476003,0.36,enough cells in well,281,196
Gm9946,SID315481593,0.03,enough cells in well,107,165
Or8c15,SID315480023,1.5,enough cells in well,161,162
Keg1,SID315472119,0.66,enough cells in well,257,146
Elovl1,SID315471191,-0.18,enough cells in well,178,106
Or1l8,SID315480277,0.43,enough cells in well,213,134
Tbc1d24,SID315478349,-0.26,enough cells in well,107,142
Ccnf,SID315465819,0.44,enough cells in well,280,242
Kcnk1,SID315467589,-1.3 (active),enough cells in well,113,70.4
Dynll1,SID315471549,-0.73,enough cells in well,187,144
Or13e8,SID315471340,3.19 (active),enough cells in well,202,436
Opn3,SID315466428,0.91,enough cells in well,412,99.4
H3c8,SID315476113,0.09,enough cells in well,198,135
Or2z9,SID315480204,-2.04 (active),enough cells in well,59.9,35.6
B230220B15Rik,SID315481384,0.25,enough cells in well,239,126
Camk2d,SID315476674,-0.12,enough cells in well,180,159
Mtmr7,SID315471217,0.55,enough cells in well,241,141
Grik5,SID315467032,0.48,enough cells in well,291,280
Potefam1,SID315473105,,fewer than 50 cells per well; well left out of calls,203,88.4
Mblac1,SID315481580,-0.13,enough cells in well,5.51,156
Tinf2,SID315470680,0.23,enough cells in well,235,155
4930449I24Rik,SID315473005,,fewer than 50 cells per well; well left out of calls,235,98.3
Nptx1,SID315468231,1.35,enough cells in well,322,288
Or8b12b,SID315480393,-0.29,enough cells in well,87.4,108
U2af1,SID315476699,,fewer than 50 cells per well; well left out of calls,46,37.9
Dnajb13,SID315473798,1.32,enough cells in well,322,116
Ap2a1,SID315465438,-0.6,enough cells in well,169,146
Ctso,SID315478703,1.96,enough cells in well,387,340
Or52n2,SID315480695,-0.13,enough cells in well,82,128
Pbp2,SID315475301,0.39,enough cells in well,241,139
Cenpt,SID315481301,-1.6 (active),enough cells in well,136,48.1
Taf10,SID315470316,0.27,enough cells in well,64,148
Sntb2,SID315469371,-0.78,enough cells in well,81,50.5
Nup54,SID315480831,,fewer than 50 cells per well; well left out of calls,155,67.8
Pfkfb4,SID315480930,0.06,enough cells in well,212,151
Nfe2l3,SID315468148,-0.44,enough cells in well,239,128
Tfpi,SID315469684,-0.26,enough cells in well,284,77.6
Or56a4,SID315479741,,fewer than 50 cells per well; well left out of calls,230,296
Foxk1,SID315467955,0.77,enough cells in well,302,178
Tbl2,SID315470581,,fewer than 50 cells per well; well left out of calls,95.8,64.9
